Data taken from article PMC11087589, “Molecular basis of bacterial DSR2 anti-phage defense and viral immune evasion” (Nature Communications, 2024).
These are yes or no findings as the source states them, for the method shown.

Target: DSR2^W143G/Y148G/Y552G/V556S/F559G/N563S (Bacillus subtilis) (UniProt P0DXN8)
Experiment: SEC; oligomeric state of purified DSR2, its mutants and the DSR2^H171A-Tube complex; Superdex 200 Increase 10/300 GL, 25 mM Tris-HCl pH 7.5, 150 mM NaCl; both purified

B1: DSR2^W143G/Y148G/Y552G/V556S/F559G/N563S (enzyme, UniProt P0DXN8 1-1005)
chain: MVKVDLESKRYGEKLKEVFLMLDNNVVECIKEITESSRNGKLVFFVGAGVSTLSDYPQWWRLVDKYHEELYGSPKKGNYSSDEYLRIPQIFYNVKGEMAFDGILKDFFQVDKPTNPIHDKILAMNPAHVITTNYDNLIDTACGKRGKGFSVISAEEDVANATSSRYLLKVHGDFRKGFKGENVVLKEDDYLNYDQNYPLISNLMKTIIATHTIVFIGYGLGDYNINMLLNWVRKLQKDSFHKPFFIRTDPSPIENETLIYYENKGLRIIDAASLIDSNEYDYLERYSAVMDLLIESQENKFITKDDEVIDYIYGKISPLFALQYIRKIDLKHVFEYDYHFEVNGTVVRHKNKGFGYMERFFELKESCDERSKLSKKQYERFNALFNFFEKNGVICMAKDAGTLNTSIEINSLAYHGKYDVMKKFIEEQSVSIEDDYKKAFFLACLGRWEESYDLYSNIILNSIDESNGCVYYLSQINRYRIYQSITQAVTQFNGLGLLTFGRHYKPFTDEFLARIEREMTNFNIDDLFNGMPFEFQKKYKILEFLSDNQFLGDDTSKLGELTSKVRSEMSEGSYSFGMSSDIVVLLRLYDNLRFLYENCLWSVSFHEFHQYIRNSMSLLIEKAEYERTRDIDELGFSFFGKKSGFFMEYYDFVNISRHFKIDDIKNLERSCSIDKIRFGEQEKIEEYLVGIAEEITKQFSANGMNVVFYTQFISEAKAALYFAKYVKLSEEGLGKIVKALLFYFPERDLDIGKRYVWLERLTKCNELPKSIISIIDDFLVLQAEKHIDQNYSEVSSNGLYSRDYGALIKHFEKNFISKRLSEITLCLTQDKQKQIDFLFKLLPLLSTNAKSHLLSFKSVENINDLMNGIRIGLIDEFTPEHEELIIEYLETRKVNYIVEKEKGIQTFSSNDYMSTFGIWYFLEEINNSKMEEFIGMDDQYDFFVDPENFDYKKFIPSWLKNYNDKLLGKIAGNKHMKHHVIEVLKERVKNSNDKRYLEILMNYFI
For B1, which binding is on record?
The binding was “no binding”.
